# Laboratory results from PubChem BioAssay (NCATS).
# Inconclusive means that the source gave no clear call. Such entries were picked first, then a sample of the others. Potencies of inconclusive entries are doubtful fits and often do not repeat. The source made the active and inactive calls. Calls follow the shape of the dose curve; as a rule, active = well fitted cell-killing curve with a large enough effect; inconclusive = small, poorly fitted or top-dose-only effect, or effect the other way; inactive = flat fitted curve, though single readings scatter. Where a SMILES comes first, the peptide text is derived from it. [ ]: non-standard residue; d: D form. The star is where a group is joined. Nva = CCC[C@H](N)C(=O)O; Cbz = O=C(OCc1ccccc1)*
# Assay: qHTS of pediatric cancer cell lines to identify multiple opportunities for drug repurposing: Confirmatory screen for control Hh wild type fibroblast cells (AID 1347121); also: nearly all actives have a fitted effect of over 70% in size;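 as to activity, negative = cytotoxic: plate controls were DMSO for no effect and bortezomib for full effect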
# Conditions: viability qHTS; series mostly up to 45.9 µM; activity, negative = cytotoxic: at the top concentration
# Procedure, shortened: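 Cells (500-1,000/well) in growth media were settled 5 h at 37 degrees C, then given compounds for 48 h. Viability was read as CellTiter-Glo luminescence. Primary runs used MIPE at 11 points (0.78 nM-46 µM) and NPC at 8 points (0.59 nM-46 µM); follow-ups used 11 points.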
# Potency is read from the fitted curve at half-maximal effect.
SMILES,Potency,"activity, negative = cytotoxic"
CN[C@@H]1CN(c2ccc3c(=O)c(C(=O)O)cn(-c4nccs4)c3n2)C[C@@H]1OC,"inconclusive: 18.2 µM [cytotoxic, single point]",–
COc1ccc(-c2ccc3c(N4CCOC[C@H]4C)nc(N4CCOC[C@H]4C)nc3n2)cc1CO,"inconclusive: 0.117 µM [cytotoxic, full curve, poor fit]",–
CNC(=O)c1cccc(-c2ccc3c(N4CCOC[C@H]4C)nc(N4CCOC[C@H]4C)nc3n2)c1,"inconclusive: 0.465 µM [cytotoxic, full curve]",–
Nc1ncn([C@H]2C[C@H](O)[C@@H](CO)O2)c(=O)n1,–,inactive: 7.42%
FC(F)c1nc2ccccc2n1-c1nc(N2CCOCC2)nc(N2CCOCC2)n1,"inconclusive: 4.65 µM [cytotoxic, full curve]",–
C[C@H](c1ccc(F)cc1CCCC(=O)O)N(c1cc(F)ccc1F)S(=O)(=O)c1ccc(Cl)cc1,–,inactive: 3.62%
COc1cccc2c1C(=O)c1c(O)c3c(c(O)c1C2=O)C[C@@](O)(C(=O)CO)C[C@@H]3O[C@H]1C[C@H](N)[C@@H](O)[C@H](C)O1,"inconclusive: 0.585 µM [cytotoxic, full curve, poor fit]",–
O=c1[nH]nc(OCCCc2ccc(Cl)cc2)c(NCc2cccnc2)c1Br,active: 10.4 µM,–
Cc1cnc(Nc2ccc(N3CCN(C)CC3)cc2)nc1Nc1cccc(S(=O)(=O)NC(C)(C)C)c1,active: 14.7 µM,–
FC(F)(F)c1ccc(C=Cc2nc(COc3ccc(CCCCn4ccnn4)cc3)co2)cc1,active: 0.369 µM,–
COc1cc2c(cc1OC)[C@@H]1Cc3ccc(OC)c(OC)c3CN1CC2,–,inactive: -17.1%
CCC[C@@H](C=O)NC(=O)[C@H](CC(C)C)NC(=O)[C@H](CC(C)C)NC(=O)OCc1ccccc1 (Cbz-Leu-Leu-[Nva]-aldehyde),active: 7.37 µM,–
NC(=O)Nc1cc(-c2cccc(F)c2)sc1C(=O)N[C@H]1CCCNC1,active: 20.8 µM,–
CC(C)(N)c1ccc(-c2nc3ccccc3nc2-c2ccccc2)cc1,"inconclusive: 23.3 µM [cytotoxic, single point]",–
CC(=O)O[C@H]1C(=O)[C@@]2(C)C([C@H](OC(=O)c3ccccc3)[C@]3(O)C[C@H](OC(=O)[C@H](O)[C@@H](NC(=O)c4ccccc4)c4ccccc4)C(C)=C1C3(C)C)[C@]1(OC(C)=O)CO[C@@H]1C[C@@H]2O (stereo partly specified),"inconclusive: 0.0059 µM [cytotoxic, full curve, poor fit]",–
Nc1nc(N)nc(-c2cc(Cl)ccc2Cl)n1,–,inactive: 2.06%
COc1ccc(C(C)=O)c(O)c1,–,inactive: -1.1%
O=S(=O)(O)CCS,"inconclusive: 14.7 µM [cytotoxic, partial curve, poor fit]",–
COc1cc(CNC(=O)CCCCC=CC(C)C)ccc1O,–,inactive: -0.376%
CS(=O)(=O)Nc1ccc([N+](=O)[O-])cc1Oc1ccccc1,–,inactive: 0.173%
CC(C)(C)c1cc(C(C)(C)C)c(NC(=O)c2c[nH]c3ccccc3c2=O)cc1O,"inconclusive: 36.9 µM [cytotoxic, single point]",–

# Compounds listed so far containing an NH in an aromatic ring, in the order listed:
SMILES,Potency,"activity, negative = cytotoxic"
O=c1[nH]nc(OCCCc2ccc(Cl)cc2)c(NCc2cccnc2)c1Br,active: 10.4 µM,–
CC(C)(C)c1cc(C(C)(C)C)c(NC(=O)c2c[nH]c3ccccc3c2=O)cc1O,"inconclusive: 36.9 µM [cytotoxic, single point]",–
